24 molecules from PubChem BioAssay AID330 (DTP/NCI, 2004) can be followed below.

The test system of the assay is P388 leukemia ip, CD2F1 mice, survival T/C. Description: NCI In Vivo Anticancer Drug Screen. Data for tumor model P388 Leukemia (intraperitoneal) in CD2F1 (CDF1) mice. The conditions noted are these: T/C endpoint: median survival time, higher T/C = longer survival.
The mark [1] stands for this setting: dose: 60.0 mg/kg/injection, schedule: Q01DX005 (ip), vehicle: Klucel (hydroxypropylcellulose) (HPC).
The mark [2] stands for this setting: dose: 240.0 mg/kg/injection, schedule: Q01DX005 (ip), vehicle: Klucel (hydroxypropylcellulose) (HPC).
The mark [3] stands for this setting: dose: 50.0 mg/kg/injection, schedule: Q01DX009 (ip), vehicle: Klucel (hydroxypropylcellulose) (HPC).
[4] abbreviates: dose: 200.0 mg/kg/injection, schedule: Q01DX005 (ip), vehicle: Klucel (hydroxypropylcellulose) (HPC).
Where [5] appears, read: dose: 200.0 mg/kg/injection, schedule: Q01DX009 (ip), vehicle: Klucel (hydroxypropylcellulose) (HPC).
Where [6] appears, read: dose: 50.0 mg/kg/injection, schedule: Q04DX002 (ip), vehicle: saline with Tween-80.
[7] abbreviates: dose: 200.0 mg/kg/injection, schedule: Q04DX002 (ip), vehicle: saline with Tween-80.
Where [8] appears, read: dose: 200.0 mg/kg/injection, schedule: Q01DX009 (ip), vehicle: saline.
The mark [9] stands for this setting: dose: 240.0 mg/kg/injection, schedule: Q01DX005 (ip), vehicle: saline.

The list shows only some results of the screen, not a fair sample: it gathers tests that were run many times, whatever their T/C, doses with no T/C, and many T/C values between a quarter and a half above the control. Other doses and runs of a compound stand elsewhere. T/C: endpoint of the treated group in % of that of the vehicle group. Some doses have a count of surviving animals in place of a T/C: the source files T/C as zero there, which appears to mark a toxic dose or a test without result, not a measured value. Some doses without a T/C left all or most animals alive at the check, yet need not have been tolerated: the source hardly ever lists a survival T/C far under the control, and the zero likely stands for such cases as well. Survivors were counted at the toxicity check, usually on the fifth day, unless a day is given; later deaths do not show. Schedules are NCI's codes, taken here to give the interval after Q, in days (D) or hours (H), and the number of doses after X. Marks such as (2×) give the number of equal values in this list. Some entries were tested several times; the results are listed from low to high. Where survival is the endpoint, the PubChem record calls one and a half times the control and up active, and a quarter to a half above the control has no call in these data; cut-offs in other NCI protocols can differ.

On to `O=C(/C=C1\Nc2ccccc2N(C(=O)c2ccccc2)C1c1ccccc1)c1ccccc1` (configuration not stated), for which the survivor count by setting is: under setting [1], 6 of 6 (2×); (dose: 120.0 mg/kg/injection, schedule: Q01DX005 (ip), vehicle: Klucel (hydroxypropylcellulose) (HPC)) 6 of 6; under setting [2], 6 of 6.

In the case of `Cc1ccc(-n2c(COc3c(C)cccc3C)n[nH]c2=S)cc1`, under “dose: 100.0 mg/kg/injection, schedule: Q01DX005 (ip), vehicle: Klucel (hydroxypropylcellulose) (HPC)”, the survivor count was 6 of 6.

As for `CCCCCCCCC(=O)c1c(OC)oc(/C=N/NC(N)=S)cc1=O`, the survivor count under setting [3] is recorded as 6 of 6.

On to `CC(=O)OCC1OC(n2ccc(N)nc2=O)C(OC(C)=O)C1OC(C)=O` (configuration not stated), for which, for the setting “dose: 50.0 mg/kg/injection, schedule: Q01DX009 (ip), vehicle: saline”, the T/C is 143 % of control.

On to `COc1ccc2c(c1)OC(C)(C)C(c1ccccc1)C2c1ccc(O)c([N+](=O)[O-])c1` (configuration not stated), for which, under setting [4], the survivor count is on record as 4 of 6.

`CN(C(=S)S(C)(=O)=O)c1ccccc1`: the survivor count (dose: 12.5 mg/kg/injection, schedule: Q01DX009 (ip), vehicle: Klucel (hydroxypropylcellulose) (HPC)) is given as 4 of 6; the survivor count (dose: 25.0 mg/kg/injection, schedule: Q01DX009 (ip), vehicle: Klucel (hydroxypropylcellulose) (HPC)) is given as 0 of 6; the survivor count under setting [3] is given as 0 of 6; the survivor count (dose: 100.0 mg/kg/injection, schedule: Q01DX009 (ip), vehicle: Klucel (hydroxypropylcellulose) (HPC)) was 0 of 6; the survivor count under setting [5] was 0 of 6.

On to `COc1ccc2nc3cc(Cl)ccc3c(NN3CCN(CCO)CC3)c2c1`, for which the survivor count by setting is: (dose: 0.09 mg/kg/injection, schedule: Q01DX009 (ip), vehicle: DMSO) 5 of 5; (dose: 3.0 mg/kg/injection, schedule: Q01DX009 (ip), vehicle: DMSO) 6 of 6; (dose: 6.0 mg/kg/injection, schedule: Q01DX009 (ip), vehicle: DMSO) 3 of 6; (dose: 12.5 mg/kg/injection, schedule: Q01DX009 (ip), vehicle: DMSO) 5 of 6; (dose: 25.0 mg/kg/injection, schedule: Q01DX009 (ip), vehicle: DMSO) 5 of 6; (dose: 50.0 mg/kg/injection, schedule: Q01DX009 (ip), vehicle: DMSO) 5 of 6. Besides, the survivor count is given as 5 of 6 (dose: 100.0 mg/kg/injection, schedule: Q01DX009 (ip), vehicle: DMSO) and 5 of 6 (dose: 200.0 mg/kg/injection, schedule: Q01DX009 (ip), vehicle: DMSO).

With `COC(=O)Nn1cc(C(C(C)=O)C(C)=O)c(C(C)=O)c1C`, the survivor count under setting [4] is listed as 3 of 6.

Consider `Cc1nn(C)c(NC(=O)c2ccccc2O)c1SC#N`, for which the survivor count by setting is: under setting [6], 0 of 6; (dose: 100.0 mg/kg/injection, schedule: Q04DX002 (ip), vehicle: saline with Tween-80) 0 of 6; under setting [7], 0 of 6.

In the case of `COC1/C=C\OC2(C)Oc3c(C)c(O)c4c(O)c(c5[nH]c(-c6ccccc6)nc5c4c3C2=O)NC(=O)/C(C)=C\C=C\C(C)C(O)C(C)C(O)C(C)C(OC(C)=O)C1C` (configuration not stated), the survivor count under setting [5] is recorded as 0 of 6.

For the molecule `COCCCNC(=O)c1nnn2c1nc(N)c1cc(Cl)ccc12`, under setting [4], the survivor count is given as 6 of 6.

As for `CCCCCCCCCCCCCC[N+]1([O-])CCCCCC1`, the survivor count runs as follows: (dose: 100.0 mg/kg/injection, schedule: Q01DX009 (ip), vehicle: saline) 4 of 6; under setting [8], 0 of 6.

For `CN(C)CCCNc1c2ccccc2nc2c1c(=O)n(C)c(=O)n2C`, the survivor count under setting [9] was 0 of 6.

On to `c1cnc2c(c1)n[n+]1[n-]c3ccccc3n21`, for which the survivor count under setting [2] is reported as 3 of 6.

For the molecule `CC1CCCC(NC(=O)N(CCCl)N=O)C1` (configuration not stated), the T/C (dose: 2.0 mg/kg/injection, schedule: Q04DX003 (ip), vehicle: saline with Tween-80) is 145 % of control and the T/C (dose: 8.0 mg/kg/injection, schedule: Q04DX003 (ip), vehicle: saline with Tween-80) is 131 % of control. The survivor count was 6 of 6 (dose: 50.0 mg/kg/injection, schedule: Q01DX009 (ip), vehicle: saline with Tween-80); 6 of 6 (dose: 100.0 mg/kg/injection, schedule: Q01DX009 (ip), vehicle: saline with Tween-80); 6 of 6 (dose: 100.0 mg/kg/injection, schedule: Q04DX003 (ip), vehicle: saline with Tween-80).

With `COC(=O)Nc1nc2ccc(C(=O)OCC(C)C)cc2[nH]1`, the survivor count (dose: 400.0 mg/kg/injection, schedule: Q04DX002 (ip), vehicle: saline with Tween-80) is 6 of 6.

As for `O=C(Nc1ccc(S(=O)(=O)O)cc1)c1ccc([N+](=O)[O-])cc1`, the survivor count under setting [8] is listed as 6 of 6.

As for `CC(=O)OC1C=CCC2C(=O)OC(=O)C12` (configuration not stated), the survivor count was 6 of 6 under setting [1] and 6 of 6 under setting [2].

With `[Cl][Cu][Cl].[NH-]C1CCCC2CCC[N-]C12` (configuration not stated), the survivor count is, setting by setting: (dose: 25.0 mg/kg/injection, schedule: Q04DX002 (ip), vehicle: saline with Tween-80) 0 of 6; under setting [6], 1 of 6.

Turning to `Cc1ccc(-c2n[nH]c(=O)c(C#N)c2-c2ccc(C)cc2)cc1`, the survivor count under setting [7] is reported as 6 of 6.

In the case of `CN(C)CC[CH2][Sn]([CH2]CCN(C)C)([CH2]CCN(C)C)[CH2]CCN(C)C`, the survivor count (dose: 200.0 mg/kg/injection, schedule: Q01DX009 (ip), vehicle: saline with Tween-80) is 0 of 6.

Turning to `O=[N+]([O-])c1ccc(N(CCO)CCO)c2c1no[n+]2[O-]`, the T/C is 125 % of control (dose: 3.12 mg/kg/injection, schedule: Q01DX005 (ip), vehicle: saline with Tween-80); 128 % of control (dose: 6.25 mg/kg/injection, schedule: Q01DX005 (ip), vehicle: saline with Tween-80); 129 and 134 % of control (dose: 12.5 mg/kg/injection, schedule: Q01DX005 (ip), vehicle: saline with Tween-80); 131 % of control (2×) (dose: 25.0 mg/kg/injection, schedule: Q01DX005 (ip), vehicle: saline with Tween-80); 129 % of control (dose: 32.0 mg/kg/injection, schedule: Q04DX003 (ip), vehicle: saline); 131 and 145 % of control (dose: 50.0 mg/kg/injection, schedule: Q01DX005 (ip), vehicle: saline with Tween-80). The T/C (dose: 64.0 mg/kg/injection, schedule: Q04DX003 (ip), vehicle: saline) is 146 % of control.

On to `C[n+]1c(-c2ccc(/C=N/NC(=O)C(=O)N/N=C/c3ccc(-c4cn5ccccc5[n+]4C)cc3)cc2)cn2ccccc21`, for which the survivor count runs as follows: (dose: 30.0 mg/kg/injection, schedule: Q01DX005 (ip), vehicle: saline) 3 of 6; (dose: 60.0 mg/kg/injection, schedule: Q01DX005 (ip), vehicle: saline) 0 of 6; (dose: 120.0 mg/kg/injection, schedule: Q01DX005 (ip), vehicle: saline) 0 of 6; under setting [9], 0 of 6.

For the molecule `CCCCCCCCCCS(=O)CC(CO)NC(=O)/C=C/c1c(C)[nH]c(=O)[nH]c1=O` (configuration not stated), the T/C reads like this: (dose: 1.56 mg/kg/injection, schedule: Q01DX009 (ip), vehicle: other) 131 % of control; (dose: 3.13 mg/kg/injection, schedule: Q01DX009 (ip), vehicle: other) 129 and 134 % of control; (dose: 6.25 mg/kg/injection, schedule: Q01DX009 (ip), vehicle: other) 140 % of control. The survivor count reads like this: (dose: 12.5 mg/kg/injection, schedule: Q01DX009 (ip), vehicle: other) 1 of 6, 2 of 6, 3 of 6; (dose: 25.0 mg/kg/injection, schedule: Q01DX009 (ip), vehicle: other) 0 of 6 and 1 of 6; (dose: 50.0 mg/kg/injection, schedule: Q01DX009 (ip), vehicle: other) 0 of 6; (dose: 100.0 mg/kg/injection, schedule: Q01DX009 (ip), vehicle: other) 0 of 6; (dose: 200.0 mg/kg/injection, schedule: Q01DX009 (ip), vehicle: other) 0 of 6.
